From paper PMC10163288
This is one part of the list.

B1: il10ra_site1_sap_16_mot_HHH_b1_02665_000000293_0001_1_18_H_._HHH_b1_07993_0001_0000300023_0000001_0_0001 (protein)
chain: SSSSNEKFEHVMEAIEEIMKLINDGNPEEARELAEKLEELIEELGNRLAKWQLEFVLKHTSSSSS
B2: il10ra_site1_normal_mot_HHH_b1_01821_000000158_0001_23_39_H_._HHH_b1_04578_0001_0000200009_0000001_1 (protein)
chain: SSSSSEFQRLAQRAVRLAFRLSDQEVLQRIWELFRRYVEEGDPRLEEELEELLEELEERGSSSSS
B3: il10ra_site1_sap_16_mot_8756ee2cf497b5429c717dfc0c0bcfd6_0001_000000186_0001_1_13_H_._HHH_b1_03338_0001_0000100002_0000003_0_0001 (protein)
chain: SSSSTLEWSVKFMLEIVEELLERGDKEKAEHLLEALLRHLKEAGDPELLREVEELLEEVRKSSSS
B4: il10ra_site1_sap_19_mot_HHH_b1_03763_000000209_0001_22_38_H_._HHH_b2_01352_0001_0000100003_0000002_0_0001_af2pred_0001 (protein)
chain: SSSSSDEAEKAIEWLLRAAKQLDDEEVVKLAIRDAEVAAEALGNEELVEELRQILEELRSSSSSS
B5: il10ra_site1_normal_mot_b26a303360aa2756ef5b79665ce52f45_0001_000000179_0001_1_11_H_._HHH_b1_04981_0001_0000100001_0000002_0_af2pred_0001 (protein)
chain: SSSSNEEIEEVIELLREAAELLRKGNPEEAEKLLEEAERLAKELGNTTLEFAVEFLLKQARSSSS
B6: il10ra_site1_sap_19_mot_HHH_b2_00723_000000075_0001_22_38_H_._HHH_b2_03083_0001_0000200008_0000002_0_0001 (protein)
chain: SSSSDEEYARLAVRFAEAMLRAGNEKAAELELELMLSALRRNGDEEAAEIIEEALEAVKGSSSSS
B7: il10ra_site1_normal_mot_HHH_b2_04912_000000028_0001_1_20_H_._HHH_b1_01231_af2_0001_0000400044_0000002_0 (protein)
chain: SSSSNDEALELVLEALRLALRGDFEEAKEVLEEAAKIAEEEGNERLLRVIRELLQAIESQLSSSS
B8: il10ra_site1_sap_25_mot_HHH_b1_03106_000000018_0001_1_19_H_._HHH_b2_06377_0001_0000200015_0000001_0_0001 (protein)
chain: SSSSSEEREEVLELSLEAFRLALRGDPEEARKLLEEAERLAEELNSPTALMAIRSMLKALSSSSS
B9: il10ra_site1_sap_11_mot_HHH_b1_05084_000000041_0001_41_57_H_._HHH_b2_07221_0001_0000300028_0000001_0_0001 (protein)
chain: SSSSDEEEYIRLALRFARWALEAGSPRSARIALRAAKEMAERLGDEELLELVEKLLEELESSSSS
B10: il10ra_site1_sap_18_mot_a6c796b944619e241e020fd597ddb6da_0001_af2_000000092_0001_15_31_H_._HHH_b2_04730_0001_0000100014_0000002_0_0001 (protein)
chain: SSSSSEEVYELSREAAELLREGNPEEARKVLEEAEELAEEENDWATLFAIRHMLRAIEELSSSSS

target: il10ra, Q13651; test: yeast display titration

Apparent Kd, inactive:
B1 no binding seen
B2 no binding seen
B3 no binding seen
B4 no binding seen
B5 no binding seen
B6 no binding seen
B7 no binding seen
B8 no binding seen
B9 no binding seen
B10 no binding seen
